Source: publication doi:10.1101/2022.03.26.485938
Results are given in words; binding and its absence hold for the method and conditions named. For part of these data: Binding can be weak; no strength is given. For part of these data: Where a sequence is shown, tags or fusion partners need not be part of it.

T1: Clathrin Light Chain (CLC2)-GFP (Arabidopsis thaliana) (UniProt O04209)
T1 sequence: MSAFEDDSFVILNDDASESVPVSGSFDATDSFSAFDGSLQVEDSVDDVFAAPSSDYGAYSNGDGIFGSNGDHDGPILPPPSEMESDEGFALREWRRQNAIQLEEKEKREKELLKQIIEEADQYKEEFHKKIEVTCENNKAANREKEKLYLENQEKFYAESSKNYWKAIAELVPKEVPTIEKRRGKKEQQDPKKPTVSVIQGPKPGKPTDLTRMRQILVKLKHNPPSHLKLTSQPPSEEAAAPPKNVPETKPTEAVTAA


Columns and labels:
[1] = molecular target: T1, Clathrin Light Chain (CLC2)-GFP (Arabidopsis thaliana); assay: pull-down
[2] = molecular target: binding domain (BD)-Kin7.3 (Arabidopsis thaliana); assay: two-hybrid

Row | binding [1] | binding [2] | Molecule
1 | no binding |  | GST-SFH8^ΔIDR (Arabidopsis thaliana) (domain or fragment)
2 |  | binds | SPC25 (protein, UniProt Q93VK9 1-315) MEQISNIAGGDTTKETMASLGLICEKDIHEQRLKIDSFIASPFRRSMNSLVERAQATAQSQVELMNLKADLREAEDELVKVLAVKTRKEARQMGIRDSISATQSRIEVLRRNLQLQKSKKDDSVRIISQQLQALSKSKDNAGKVTEDKADIHEAISWYNHALGFHVEAGHGVKFTFTNIDAKRPTREFSFTVHYGNDIYTLLDSDLQLDYINEMVQELNKTNDLFRFVRLMREQFLKSTLSELPTHSGQLQQETSAISASAPAISFSTDTNMSTPENKRSKVQVNRRQKRGSESPLLAPVSTSATRRSSRFKGKK
3 |  | binds | PORCINO (protein, UniProt Q9SMR2 1-345) MEDDGQSSVAETLDPALQKKHHDMLERLSARHQARKSDSPDSSSSSSSTLESTSSFLAKFSDSKRSIESRIAESRLASSSTDSSKLKSDLAEISVAIDNLEKLLAENSYFLPSYEVRSSLKIVSDLKQSLDILSGELVPKKKFSFKSKSTTKKPESKLPEIQKPDVVLPPKLVPVRDSPGLRNKHGETLVKSFEGSSIGEFTLSDLDSCQVKLTGTVNALFLHRLKKCSVYTGPVIGSILIDDVEDCVLVLASHQIRIHCARKSDFYLRVRSRPIIEDSNGVRFAPYCLDYKGIDEDLKTAGLEEETNNWANVDDFRWLRAVQSPNWSLLPEEERVSLLTISGDS
